Source: publication PMC6614809
These are yes or no findings as the source states them, for the method shown. Some results given as binding are weak or reduced against the parent protein; the word gives no strength. Sequences can lack the tags named with a protein.

Sequences of proteins named here, by UniProt entry; tags and fusion partners are left off.
UniProt Q08562: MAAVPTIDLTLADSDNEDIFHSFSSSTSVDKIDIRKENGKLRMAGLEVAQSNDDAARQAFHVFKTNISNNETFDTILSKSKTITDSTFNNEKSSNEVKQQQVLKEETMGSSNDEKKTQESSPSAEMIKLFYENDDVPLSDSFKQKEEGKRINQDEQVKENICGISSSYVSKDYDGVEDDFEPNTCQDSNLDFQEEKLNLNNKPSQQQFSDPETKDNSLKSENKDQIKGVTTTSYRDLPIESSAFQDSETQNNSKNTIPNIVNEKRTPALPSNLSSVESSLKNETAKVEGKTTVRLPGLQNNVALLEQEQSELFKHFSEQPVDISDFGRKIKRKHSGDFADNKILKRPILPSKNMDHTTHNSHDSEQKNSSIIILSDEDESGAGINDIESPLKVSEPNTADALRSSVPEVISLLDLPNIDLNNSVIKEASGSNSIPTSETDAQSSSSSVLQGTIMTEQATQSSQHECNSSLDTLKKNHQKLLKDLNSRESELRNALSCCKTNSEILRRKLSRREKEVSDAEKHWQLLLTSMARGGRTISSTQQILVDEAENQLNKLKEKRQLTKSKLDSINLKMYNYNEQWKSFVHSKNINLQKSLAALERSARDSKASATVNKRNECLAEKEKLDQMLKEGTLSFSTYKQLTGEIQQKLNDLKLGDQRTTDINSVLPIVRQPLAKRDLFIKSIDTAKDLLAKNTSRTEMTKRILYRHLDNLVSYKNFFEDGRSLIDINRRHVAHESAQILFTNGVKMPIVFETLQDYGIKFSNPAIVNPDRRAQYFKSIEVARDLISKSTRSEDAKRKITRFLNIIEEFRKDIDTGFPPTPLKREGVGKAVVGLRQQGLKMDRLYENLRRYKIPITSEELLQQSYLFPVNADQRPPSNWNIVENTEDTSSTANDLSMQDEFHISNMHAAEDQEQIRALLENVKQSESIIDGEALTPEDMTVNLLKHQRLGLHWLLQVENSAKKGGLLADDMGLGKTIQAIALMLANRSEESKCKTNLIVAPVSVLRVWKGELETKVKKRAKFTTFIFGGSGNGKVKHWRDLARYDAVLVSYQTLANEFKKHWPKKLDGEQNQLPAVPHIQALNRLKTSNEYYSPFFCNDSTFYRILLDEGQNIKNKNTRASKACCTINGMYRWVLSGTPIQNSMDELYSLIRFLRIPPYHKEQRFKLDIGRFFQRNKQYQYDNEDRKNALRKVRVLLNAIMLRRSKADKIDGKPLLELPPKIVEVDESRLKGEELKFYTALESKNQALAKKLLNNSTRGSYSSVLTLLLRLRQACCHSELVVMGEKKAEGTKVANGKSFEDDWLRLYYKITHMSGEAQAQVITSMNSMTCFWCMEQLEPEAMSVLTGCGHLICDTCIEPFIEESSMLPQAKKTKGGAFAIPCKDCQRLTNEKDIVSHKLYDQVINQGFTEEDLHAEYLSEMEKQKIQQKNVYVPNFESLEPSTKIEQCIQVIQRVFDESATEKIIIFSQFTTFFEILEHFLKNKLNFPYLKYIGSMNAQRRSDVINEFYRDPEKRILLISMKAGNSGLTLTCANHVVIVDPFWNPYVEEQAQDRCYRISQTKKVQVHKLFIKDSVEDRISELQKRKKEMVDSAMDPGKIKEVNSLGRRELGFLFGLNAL

Target: T1, Full-length Top2, yeast two-hybrid fusion (budding yeast (S. cerevisiae)) (UniProt P06786)
T1 sequence: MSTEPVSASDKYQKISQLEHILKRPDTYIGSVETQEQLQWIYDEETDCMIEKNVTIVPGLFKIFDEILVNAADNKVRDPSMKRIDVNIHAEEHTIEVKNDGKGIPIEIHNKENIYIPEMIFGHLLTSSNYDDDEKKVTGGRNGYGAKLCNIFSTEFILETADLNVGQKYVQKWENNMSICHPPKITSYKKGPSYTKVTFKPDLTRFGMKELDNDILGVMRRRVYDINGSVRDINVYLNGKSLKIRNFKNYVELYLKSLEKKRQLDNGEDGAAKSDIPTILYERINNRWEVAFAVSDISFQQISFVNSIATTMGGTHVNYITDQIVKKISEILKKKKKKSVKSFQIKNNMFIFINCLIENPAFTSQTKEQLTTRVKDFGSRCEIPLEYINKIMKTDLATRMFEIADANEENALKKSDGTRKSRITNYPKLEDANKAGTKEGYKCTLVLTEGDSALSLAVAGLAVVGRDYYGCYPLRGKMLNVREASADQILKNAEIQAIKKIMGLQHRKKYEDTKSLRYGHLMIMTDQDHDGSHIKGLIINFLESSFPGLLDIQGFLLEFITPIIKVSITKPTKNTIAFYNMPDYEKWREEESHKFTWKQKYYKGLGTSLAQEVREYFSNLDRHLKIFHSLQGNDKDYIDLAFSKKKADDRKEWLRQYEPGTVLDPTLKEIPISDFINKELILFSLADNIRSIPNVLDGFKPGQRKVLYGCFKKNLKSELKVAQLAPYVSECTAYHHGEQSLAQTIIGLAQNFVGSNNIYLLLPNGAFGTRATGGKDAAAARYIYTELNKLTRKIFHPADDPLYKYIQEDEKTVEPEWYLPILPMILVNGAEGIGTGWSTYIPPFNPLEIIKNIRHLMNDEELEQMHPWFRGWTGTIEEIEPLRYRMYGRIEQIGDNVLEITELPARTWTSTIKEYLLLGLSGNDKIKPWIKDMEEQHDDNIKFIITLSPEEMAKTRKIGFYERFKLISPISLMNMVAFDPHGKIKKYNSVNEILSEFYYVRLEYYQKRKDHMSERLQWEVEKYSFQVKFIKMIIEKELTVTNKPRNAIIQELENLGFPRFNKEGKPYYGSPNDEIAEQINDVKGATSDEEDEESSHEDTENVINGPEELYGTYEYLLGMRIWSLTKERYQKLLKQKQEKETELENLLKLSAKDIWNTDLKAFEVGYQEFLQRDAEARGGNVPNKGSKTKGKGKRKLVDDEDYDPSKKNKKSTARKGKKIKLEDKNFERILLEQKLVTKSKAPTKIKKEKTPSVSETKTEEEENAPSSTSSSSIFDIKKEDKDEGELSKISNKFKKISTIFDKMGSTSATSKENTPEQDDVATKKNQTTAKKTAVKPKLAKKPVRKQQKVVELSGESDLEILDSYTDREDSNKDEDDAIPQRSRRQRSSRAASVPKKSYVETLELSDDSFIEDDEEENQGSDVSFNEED
Test: two-hybrid; Gal4 activator domain (pOAD) and Gal4 binding domain (pOBD) plasmids in yeast; growth on -LWH plates with 5 mM 3-Amino-1,2,4-triazole, control -LW plates

**Q.** With “Full length Uls1 (HFP136), yeast two-hybrid fusion (from UniProt Q08562 1-1619) (enzyme)” as the substance, how does the binding read?
**A.** binds weakly
